This continues a long series; more values of the same kind are listed elsewhere.
Test system: CHD
Test: Meta-analysis of CARE and WOSCOPS combined, synergy index, CHD endpoint
Type: in vivo, human
From the text: Tables 4-5 provide meta-analyses of CARE and WOSCOPS combined (2nd section of each table) for two endpoints (CHD and CVD) and three genetic models (dominant, recessive, and additive), as well as logistic regression analyses of CARE (3rd section of each table) and WOSCOPS (4th section of each table) individually.
Tables 12 and 17 provide results of meta-analysis of the CARE and WOSCOPS sample sets combined by direct genotyping and by imputing genotypes.
“P” indicates the p-value, and “P(R)” (or “P.R.”) indicates the p-value random effect. Both of these are p-values corresponding to a statistical test of whether the combined synergy index is equal to one but use different assumptions to derive the p-value. “P” is calculated using a fixed effects model, and “P(R)” is calculated using a random effects model.
“OR” indicates the odds ratio (synergy index) calculated from a fixed effects model, and “OR(R)” (or “OR.R.”) indicates the odds ratio (synergy index) calculated from a random effects model.

Compound: CC[C@H](C)C(=O)O[C@H]1C[C@H](O)C=C2C=C[C@H](C)[C@H](CC[C@@H](O)C[C@@H](O)CC(=O)O)[C@H]21 [Pravastatin, pravastatin]
- OR(R) (rs8026245 allele G GENOTYPIC Imputed, P(R) 0.0001769): 3.0849
- OR (rs8026245 allele G RECESSIVE Imputed, P 0.0001739): 3.0436
- OR(R) (rs8026245 allele G RECESSIVE Imputed, P(R) 0.0001739): 3.0436
- OR (rs8060725 allele A ADDITIVE Genotyped, P 0.001967): 0.7414
- OR(R) (rs8060725 allele A ADDITIVE Genotyped, P(R) 0.001967): 0.7414
- OR (rs8103016 allele A ADDITIVE Genotyped, P 1.97E−05): 1.5542
- OR(R) (rs8103016 allele A ADDITIVE Genotyped, P(R) 1.97E−05): 1.5542
- OR (rs8103016 allele A DOMINANT Genotyped, P 5.37E−05): 1.6315
- OR(R) (rs8103016 allele A DOMINANT Genotyped, P(R) 5.37E−05): 1.6315
- OR (rs8104182 allele G ADDITIVE Imputed, P 8.91E−05): 1.5032
- OR(R) (rs8104182 allele G ADDITIVE Imputed, P(R) 8.91E−05): 1.5032
- OR (rs8104182 allele G DOMINANT Imputed, P 0.000187): 1.5764
- OR(R) (rs8104182 allele G DOMINANT Imputed, P(R) 0.000187): 1.5764
- OR(R) (rs8129461 allele G ADDITIVE Imputed, P(R) 0.002668): 0.4555
- OR(R) (rs8129461 allele G DOMINANT Imputed, P(R) 0.01352): 0.4432
- OR(R) (rs8130021 allele G ADDITIVE Imputed, P(R) 0.002668): 0.4555
- OR(R) (rs8130021 allele G DOMINANT Imputed, P(R) 0.01352): 0.4432
- OR (rs9284851 allele A GENOTYPIC Imputed, P 6.86E−05): 2.0519
- OR(R) (rs9284851 allele A GENOTYPIC Imputed, P(R) 6.86E−05): 2.0519
- Meta-analysis OR (rs9292827 allele A vs G (ref)): 0.34
- OR (rs9293464 allele T RECESSIVE Imputed, P 3.03E−05): 0.5422
- OR(R) (rs9293464 allele T RECESSIVE Imputed, P(R) 3.03E−05): 0.5422
- OR (rs9295154 allele G DOMINANT Genotyped, P 0.0003436): 1.5908
- OR(R) (rs9295154 allele G DOMINANT Genotyped, P(R) 0.0007175): 1.5981
- OR (rs9310221 allele A DOMINANT Imputed, P 6.72E−05): 1.6779
- OR(R) (rs9310221 allele A DOMINANT Imputed, P(R) 6.93E−05): 1.6777
- OR (rs9310699 allele T GENOTYPIC Genotyped, P 7.91E−05): 2.0683
- OR(R) (rs9310699 allele T GENOTYPIC Genotyped, P(R) 7.91E−05): 2.0683
- OR (rs9310700 allele C ADDITIVE Imputed, P 8.64E−05): 1.4077
- OR(R) (rs9310700 allele C ADDITIVE Imputed, P(R) 8.64E−05): 1.4077
- OR (rs9310700 allele C GENOTYPIC Imputed, P 3.31E−05): 2.2015
- OR(R) (rs9310700 allele C GENOTYPIC Imputed, P(R) 3.31E−05): 2.2015
- OR (rs9310701 allele G GENOTYPIC Imputed, P 7.67E−05): 2.0358
- OR(R) (rs9310701 allele G GENOTYPIC Imputed, P(R) 7.67E−05): 2.0358
- OR (rs9310704 allele G GENOTYPIC Imputed, P 4.87E−05): 2.1011
- OR(R) (rs9310704 allele G GENOTYPIC Imputed, P(R) 4.87E−05): 2.1011
- OR (rs9319185 allele C GENOTYPIC Imputed, P 5.38E−05): 2.2836
- OR(R) (rs9319185 allele C GENOTYPIC Imputed, P(R) 5.38E−05): 2.2836
- OR (rs9319186 allele T GENOTYPIC Imputed, P 7.93E−05): 2.2431
- OR(R) (rs9319186 allele T GENOTYPIC Imputed, P(R) 7.93E−05): 2.2431
- OR (rs9327555 allele T DOMINANT Imputed, P 0.000699): 0.6712
- OR(R) (rs9327555 allele T DOMINANT Imputed, P(R) 0.000699): 0.6712
- OR (rs9403367 allele C DOMINANT Imputed, P 6.11E−05): 0.6205
- OR(R) (rs9403367 allele C DOMINANT Imputed, P(R) 6.11E−05): 0.6205
- OR (rs9419608 allele G RECESSIVE Imputed, P 4.08E−05): 1.7425
- OR(R) (rs9419608 allele G RECESSIVE Imputed, P(R) 4.08E−05): 1.7425
- OR (rs9426437 allele T DOMINANT Imputed, P 5.00E−05): 0.607
- OR(R) (rs9426437 allele T DOMINANT Imputed, P(R) 5.00E−05): 0.607
- OR (rs9454967 allele G DOMINANT Imputed, P 5.94E−05): 1.9576
- OR(R) (rs9454967 allele G DOMINANT Imputed, P(R) 5.94E−05): 1.9576
- Meta-analysis OR (rs9487284 allele A vs G (ref)): 0.64
- OR (rs9635511 allele T DOMINANT Imputed, P 7.73E−05): 0.618
- OR(R) (rs9635511 allele T DOMINANT Imputed, P(R) 7.73E−05): 0.618
- OR (rs9812206 allele G ADDITIVE Imputed, P 5.80E−06): 0.5122
- OR(R) (rs9812206 allele G ADDITIVE Imputed, P(R) 5.80E−06): 0.5122
- OR (rs9812206 allele G DOMINANT Imputed, P 4.29E−06): 0.4876
- OR(R) (rs9812206 allele G DOMINANT Imputed, P(R) 4.29E−06): 0.4876
- OR (rs9813552 allele G ADDITIVE Imputed, P 4.13E−05): 0.5495
- OR(R) (rs9813552 allele G ADDITIVE Imputed, P(R) 4.13E−05): 0.5495
- OR (rs9813552 allele G DOMINANT Imputed, P 3.19E−05): 0.5265
- OR(R) (rs9813552 allele G DOMINANT Imputed, P(R) 3.19E−05): 0.5265
- OR (rs9815037 allele T ADDITIVE Imputed, P 1.99E−05): 0.5261
- OR(R) (rs9815037 allele T ADDITIVE Imputed, P(R) 1.99E−05): 0.5261
- OR (rs9815037 allele T DOMINANT Imputed, P 1.13E−05): 0.4982
- OR(R) (rs9815037 allele T DOMINANT Imputed, P(R) 1.13E−05): 0.4982
- OR (rs9819583 allele T GENOTYPIC Imputed, P 7.12E−05): 2.0778
- OR(R) (rs9819583 allele T GENOTYPIC Imputed, P(R) 7.12E−05): 2.0778
- OR (rs9825349 allele A ADDITIVE Imputed, P 1.98E−05): 0.5259
- OR(R) (rs9825349 allele A ADDITIVE Imputed, P(R) 1.98E−05): 0.5259
- OR (rs9825349 allele A DOMINANT Imputed, P 1.13E−05): 0.4982
- OR(R) (rs9825349 allele A DOMINANT Imputed, P(R) 1.13E−05): 0.4982
- OR (rs9833118 allele G ADDITIVE Imputed, P 9.63E−05): 1.3977
- OR(R) (rs9833118 allele G ADDITIVE Imputed, P(R) 9.63E−05): 1.3977
- OR (rs9833118 allele G GENOTYPIC Imputed, P 5.01E−05): 2.1101
- OR(R) (rs9833118 allele G GENOTYPIC Imputed, P(R) 5.01E−05): 2.1101
- OR (rs9834217 allele T ADDITIVE Imputed, P 2.21E−05): 0.5279
- OR(R) (rs9834217 allele T ADDITIVE Imputed, P(R) 2.21E−05): 0.5279
- OR (rs9834217 allele T DOMINANT Imputed, P 1.26E−05): 0.5002
- OR(R) (rs9834217 allele T DOMINANT Imputed, P(R) 1.26E−05): 0.5002
- OR (rs9838563 allele C GENOTYPIC Imputed, P 7.67E−05): 2.0358
- OR(R) (rs9838563 allele C GENOTYPIC Imputed, P(R) 7.67E−05): 2.0358
- OR (rs9840460 allele T ADDITIVE Imputed, P 2.08E−05): 0.5268
- OR(R) (rs9840460 allele T ADDITIVE Imputed, P(R) 2.08E−05): 0.5268
- OR (rs9840460 allele T DOMINANT Imputed, P 1.18E−05): 0.499
- OR(R) (rs9840460 allele T DOMINANT Imputed, P(R) 1.18E−05): 0.499
- OR (rs9840756 allele A ADDITIVE Imputed, P 2.08E−05): 0.5268
- OR(R) (rs9840756 allele A ADDITIVE Imputed, P(R) 2.08E−05): 0.5268
- OR (rs9840756 allele A DOMINANT Imputed, P 1.18E−05): 0.499
- OR(R) (rs9840756 allele A DOMINANT Imputed, P(R) 1.18E−05): 0.499
- OR (rs9847999 allele C GENOTYPIC Imputed, P 9.15E−05): 2.0254
- OR(R) (rs9847999 allele C GENOTYPIC Imputed, P(R) 9.15E−05): 2.0254
- Meta-analysis OR (rs9859901 allele A vs C (ref)): 0.52
- OR (rs9864769 allele C GENOTYPIC Imputed, P 7.67E−05): 2.0358
- OR(R) (rs9864769 allele C GENOTYPIC Imputed, P(R) 7.67E−05): 2.0358
- OR (rs9866421 allele C RECESSIVE Genotyped, P 0.0009027): 0.6009
- OR(R) (rs9866421 allele C RECESSIVE Genotyped, P(R) 0.0009027): 0.6009
- OR (rs9881685 allele A ADDITIVE Imputed, P 5.80E−06): 0.5122
- OR(R) (rs9881685 allele A ADDITIVE Imputed, P(R) 5.80E−06): 0.5122

From US10563263B2, “Genetic polymorphisms associated with statin response and cardiovascular diseases, methods of detection and uses thereof” (CELERA CORPORATION, priority 2010, dated 2020)
